From publication PMC10065446
These are yes or no findings as the source states them, for the method shown. Binding seen in cells or lysates may run through a third protein. Some binding calls cover weakened binding; strength is not graded here.

Chains of the proteins cited; added tags and fusions are not shown.
UniProt P17931: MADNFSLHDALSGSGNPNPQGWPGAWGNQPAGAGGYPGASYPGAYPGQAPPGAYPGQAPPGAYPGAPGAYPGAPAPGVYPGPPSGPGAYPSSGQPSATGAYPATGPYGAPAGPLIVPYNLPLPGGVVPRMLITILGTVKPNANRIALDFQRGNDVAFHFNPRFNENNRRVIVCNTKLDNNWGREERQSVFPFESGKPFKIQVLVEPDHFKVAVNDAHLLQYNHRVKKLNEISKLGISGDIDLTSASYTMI

Columns and labels:
[1] = target: human galectin-3, C-terminally HA-tagged (full-length form) (human) (UniProt P17931); experiment: co-IP; HEK293T ADAM10/17-/- cells transfected with galectin-3 (C-terminal HA) and meprin α or meprin β alone; lysis in 50 mM tris-HCl pH 7.4, 120 mM NaCl, 0.5% NP-40; IP with anti-HA-tag antibody on Protein G Dynabeads; Western blot
[2] = target: human galectin-3, C-terminally HA-tagged (full-length form) (human) (UniProt P17931); experiment: co-IP; fig. S5B: catalytically inactive meprin β–E153A with galectin-3 in transfected cells; legend and set-up not shown

Row | binding [1] | binding [2] | Binder
1 | binds | – | human meprin β (enzyme, UniProt Q16820 62-701) NSIIGEKYRWPHTIPYVLEDSLEMNAKGVILNAFERYRLKTCIDFKPWAGETNYISVFKGSGCWSSVGNRRVGKQELSIGANCDRIATVQHEFLHALGFWHEQSRSDRDDYVRIMWDRILSGREHNFNTYSDDISDSLNVPYDYTSVMHYSKTAFQNGTEPTIVTRISDFEDVIGQRMDFSDSDLLKLNQLYNCSSSLSFMDSCSFELENVCGMIQSSGDNADWQRVSQVPRGPESDHSNMGQCQGSGFFMHFDSSSVNVGATAVLESRTLYPKRGFQCLQFYLYNSGSESDQLNIYIREYSADNVDGNLTLVEEIKEIPTGSWQLYHVTLKVTKKFRVVFEGRKGSGASLGGLSIDDINLSETRCPHHIWHIRNFTQFIGSPNGTLYSPPFYSSKGYAFQIYLNLAHVTNAGIYFHLISGANDDQLQWPCPWQQATMTLLDQNPDIRQRMSNQRSITTDPFMTTDNGNYFWDRPSKVGTVALFSNGTQFRRGGGYGTSAFITHERLKSRDFIKGDDVYILLTVEDISHLNSTQIQLTPAPSVQDLCSKTTCKNDGVCTVRDGKAECRCQSGEDWWYMGERCEKRGSTRDTIVIAVSSTVAVFALMLIITLVSVYCTRKKYRERMSSNRPNLTPQNQHAF
2 | – | binds | human meprin β–E153A (catalytically inactive variant) (enzyme, UniProt Q16820 62-701) NSIIGEKYRWPHTIPYVLEDSLEMNAKGVILNAFERYRLKTCIDFKPWAGETNYISVFKGSGCWSSVGNRRVGKQELSIGANCDRIATVQHAFLHALGFWHEQSRSDRDDYVRIMWDRILSGREHNFNTYSDDISDSLNVPYDYTSVMHYSKTAFQNGTEPTIVTRISDFEDVIGQRMDFSDSDLLKLNQLYNCSSSLSFMDSCSFELENVCGMIQSSGDNADWQRVSQVPRGPESDHSNMGQCQGSGFFMHFDSSSVNVGATAVLESRTLYPKRGFQCLQFYLYNSGSESDQLNIYIREYSADNVDGNLTLVEEIKEIPTGSWQLYHVTLKVTKKFRVVFEGRKGSGASLGGLSIDDINLSETRCPHHIWHIRNFTQFIGSPNGTLYSPPFYSSKGYAFQIYLNLAHVTNAGIYFHLISGANDDQLQWPCPWQQATMTLLDQNPDIRQRMSNQRSITTDPFMTTDNGNYFWDRPSKVGTVALFSNGTQFRRGGGYGTSAFITHERLKSRDFIKGDDVYILLTVEDISHLNSTQIQLTPAPSVQDLCSKTTCKNDGVCTVRDGKAECRCQSGEDWWYMGERCEKRGSTRDTIVIAVSSTVAVFALMLIITLVSVYCTRKKYRERMSSNRPNLTPQNQHAF
